For the assay, the target named is T1, GFP-mGBP2 WT (mouse) (UniProt Q9Z0E6).
T1 sequence: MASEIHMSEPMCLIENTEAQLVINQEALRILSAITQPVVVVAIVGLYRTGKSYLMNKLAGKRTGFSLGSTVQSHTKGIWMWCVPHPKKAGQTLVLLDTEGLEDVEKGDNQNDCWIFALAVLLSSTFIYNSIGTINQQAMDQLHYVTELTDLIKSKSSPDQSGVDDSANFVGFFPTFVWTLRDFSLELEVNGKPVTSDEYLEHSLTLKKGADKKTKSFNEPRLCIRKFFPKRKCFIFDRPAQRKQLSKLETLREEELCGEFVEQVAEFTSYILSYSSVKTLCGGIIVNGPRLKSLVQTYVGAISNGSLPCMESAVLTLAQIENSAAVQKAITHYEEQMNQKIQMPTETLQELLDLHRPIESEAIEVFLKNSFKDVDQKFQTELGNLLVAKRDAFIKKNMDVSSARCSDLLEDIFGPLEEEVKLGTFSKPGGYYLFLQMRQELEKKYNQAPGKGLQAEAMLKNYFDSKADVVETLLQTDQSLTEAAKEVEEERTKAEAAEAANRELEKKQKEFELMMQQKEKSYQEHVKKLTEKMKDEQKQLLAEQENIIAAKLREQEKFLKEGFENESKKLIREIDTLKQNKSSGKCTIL
The experiment in a line: co-IP; RFP-Trap or GFP-Trap beads, o/n at 4°C, on lysate supernatants of mGBP2-/- MEFs coexpressing GFP-mGBP2 WT or truncation mutants and mCherry-Gal9; IFN-γ 16 h, T. gondii ME49 4 h, MOI 50; Western blot with α-GFP or α-mCherry.

Sequences of proteins named here, by UniProt entry; tags and fusion partners are left off.
UniProt O08573: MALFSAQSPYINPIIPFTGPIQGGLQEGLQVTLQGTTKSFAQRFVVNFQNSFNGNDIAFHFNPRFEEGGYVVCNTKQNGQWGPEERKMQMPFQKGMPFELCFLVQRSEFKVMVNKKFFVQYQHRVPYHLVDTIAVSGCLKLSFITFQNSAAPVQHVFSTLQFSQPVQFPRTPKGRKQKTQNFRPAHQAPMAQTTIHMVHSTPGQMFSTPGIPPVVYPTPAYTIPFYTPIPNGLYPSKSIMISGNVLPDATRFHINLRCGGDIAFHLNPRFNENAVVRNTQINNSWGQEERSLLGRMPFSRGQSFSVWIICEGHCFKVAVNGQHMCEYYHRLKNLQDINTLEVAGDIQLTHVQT

Results are given in words; binding and its absence hold for the method and conditions named. Binding seen in cells or lysates may run through a third protein. Some entries that bind do so weakly or less than the wild type. Sequences can lack the tags named with a protein.

“mCherry-Gal9 (N-terminal mCherry fusion of Galectin 9) (from UniProt O08573 1-353)”: the binding entry is “binds”.

The record behind these values is article PMC11761162.
